# Earlier results as cited in patent US20130336953A1, “USE OF CREATINE KINASE FOR PREVENTING OR TREATING ADDICTION TO OPIATES” (UNIVERSITÉ DE STRABOURG, priority 2011, published 2013).
# System: acidic alpha-1-glycoprotein
# Settings: cited from earlier work
structure (smiles),measurement,value
CN1CC[C@]23c4c5ccc(O)c4O[C@H]2[C@@H](O)C=C[C@H]3[C@H]1C5 [morphine],binding to acidic alpha-1-glycoprotein,binding weakly
